Some results were stated once for a whole list of compounds, not compound by compound.
Test: Gd biodistribution at 1 week (ICP-OES)
Type: in vivo, mouse
Settings: 1-week post-injection

## ZD2-Gd3N@C80: ZD2-Cys peptide conjugated to maleimido hydroxylated gadofullerene Gd3N@C80, about one peptide per cage (CTVRTSAD)
  injected dose remaining in the tissues and organs: less than 0.5%

Source: patent publication US11738099B2, “Molecular probes and methods of use” (CASE WESTERN RESERVE UNIVERSITY, priority 2014, dated 2023)
